The subject of this series is ΔNp63α WT. The series can be described thus: pull-down. To be noted: pull-down: 50 mM Tris pH 8.0, 150 mM NaCl, 0.1% Tween-20, 4 °C, protein translated in vitro, residues 1-586, protein details: Myc.

Construct, isoform or probe ends are uncertain for at least one entry. At least one verdict rests on a figure or table, not on a statement of the authors.

In the case of “GCCAGGAACATGTCCCAACATGTTGAGCCG (double strand) [p21 RE (pulldown)]”, the binding result (label: 5' biotin on S8) was “binds”. For “AAAATATGACAGACATGATGAGGCGGATGA (double strand) [KRT14 RE (pulldown)]”, where the note is “label: 5' biotin on S10”, the binding result is given as “binds”.

The values above are taken from PMC10113246.
